These are yes or no findings as the source states them, for the method shown.
B1: rpoA (protein, UniProt P56762 1-329)
chain: MVREKVKVSTRTLQWKCVESKRDSKRLYYGRFILSPLMKGQADTIGIAMRRALLGEIEGTCITRAKSENIPHDYSNIAGIQESVHEILMNLNEIVLRSNLYGTRNALICVQGPGYITARDIILPPAVEIIDNTQHIATLTEPIDLCIELKIERNRGYSLKMSNNFEDRSYPIDAVFMPVENANHSIHSYGNGNEKQEILFLEIWTNGSLTPKEALHQASRNLINLFIPFLHVEEETFYLENNQHQVTLPFFPFHNRLVNLRKKKKTKELAFQYIFIDQLELPPRIYNCLKKSNIHTLLDLLNNSQEDLIKIEHFHVEDVKKILDILEKK
B2: PAP10/Trxz (protein, UniProt Q9M7X9 1-183)
chain: MALVQSRTFPHLNTPLSPILSSLHAPSSLFIRREIRPVAAPFSSSTAGNLPFSPLTRPRKLLCPPPRGKFVREDYLVKKLSAQELQELVKGDRKVPLIVDFYATWCGPCILMAQELEMLAVEYESNAIIVKVDTDDEYEFARDMQVRGLPTLFFISPDPSKDAIRTEGLIPLQMMHDIIDNEM
B3: mTERF4/BSM/RUG2 (protein, UniProt Q9ZT96 1-541)
chain: MKIRFCNGFTKPGFLLVHFEPPSFFAVRSRSLSDSTYGNLCNHKKRPGTGIGLTVQCAIANRRFSSRSLDSPRRERSSRSSSSSGRDRDRDKDKGRDSKSLYSRPSLLDMNKEKAANRAKVYEFLRGIGIVPDELDGLELPVTADVMKERVEFLHKLGLTIEDINNYPLVLGCSVKKNMVPVLDYLGKLGVRKSTFTEFLRRYPQVLHSSVVIDLAPVVKYLQGLDIKPSDVPRVLERYPEVLGFKLEGTMSTSVAYLVGIGVARREIGGILTRYPEILGMRVARIIKPLVEYLEVLGIPRLAAARLIEKRPHILGFELDDTVKPNVQILQDFNVRETSLPSIIAQYPEIIGIDLKPKLDTQRKLLCSAIHLNPEDLGSLIERMPQFVSLSESPMLKHIDFLTKCGFSIDQTREMVIGCPQVLALNLGIMKLSFEYFQKEMKRPLQDLVDFPAFFTYGLESTVKPRHKKIIKKGIKCSLAWMLNCSDEKFEQRMSYDTIDIEEVETDPSSFDMNTLMQPEREEESDSEYEEEEDDDDEEFA
B4: mTERF1/SOLDAT1 (protein, UniProt Q84X53 1-284)
chain: MMIARCSLFPPPCFSAVRIRCFAGETSDTGILFREKLIYLQDLNVDPHKALRVNPSLRSAPISSVVSVETLLSSTGLSRPAVGRILDMFPDLLTSDPESEILPVLRFLSNEISISEQDIPKSISRCPRLLISSVDYQLRPALTFLKTLGFVGRDTITSRNTVLLVSNVERTLIPKIEYLEEGLGFTREEVAKMVVRSPALLTYSVDNNLVPKVEFFIEEMRGDVKELKRFPQYFSFSLERKIKPRHRLLKEHGILMPLSEMLKVSDGQFNHWLLELRLRSAERR
B5: mTERF5/MDA1 (protein, UniProt F4JVI3 1-493)
chain: MQSLSQLGPSEIFLVARREKPSTRAQLWFTGRLSFRQETNGIRLKNRVEFSPRPVPPNLIAAEKEEAKAVLTLFFKKQGLSNSLSSRLINKSDLFIDHLVSRLHSVHKARYLVGRELTTLEIRDSLIPYLEQLHEEHGDLLAELVVSFPDPPAEPRLVASSPVSVLPPRGDTDSAADTRKLRAVSRVSELDTEGALRPQTLYLLDLGLNLEQIKTITRKFAAFPYYSLDGKIKPVVEFLLDLGIPKSDIPTILCKRPQICGISLTDNLKPTMAFLETLGIDKNQWAKIISRFPAILTYSRQKLTSTVEFLSQTGLTEEQIGRILTRCPNIMSYSVEDKLRPTMEYFRSLNVDVAVLLHRCPQTFGLSIESNLKPVTEFFLEKGFGLDEIGIMISRYGALYTFSLKENVMPKWDYFQTMDYPKSELVKFPQFFGYSLQERIKPRYELVQRSGVRLLLNQVLSLSGIEFEKVVKKKMMKLVSNNVIAEQSSGGLL
B6: PAP4/FSD2 (protein, UniProt Q9LU64 1-305)
chain: MMNVAVTATPSSLLYSPLLLPSQGPNRRMQWKRNGKRRLGTKVAVSGVITAGFELKPPPYPLDALEPHMSRETLDYHWGKHHKTYVENLNKQILGTDLDALSLEEVVLLSYNKGNMLPAFNNAAQAWNHEFFWESIQPGGGGKPTGELLRLIERDFGSFEEFLERFKSAAASNFGSGWTWLAYKANRLDVANAVNPLPKEEDKKLVIVKTPNAVNPLVWDYSPLLTIDTWEHAYYLDFENRRAEYINTFMEKLVSWETVSTRLESAIARAVQREQEGTETEDEENPDDEVPEVYLDSDIDVSEVD
B7: PAP8/PTAC6 (protein, UniProt Q9XI19 1-328)
chain: MASSAASPSLSLLSFTSKPPYPSGSQRLFASFRTDGLFAPLTLKSRRGRGIVVKVDDVDADGGGADEYDMDDEEVEEVDNKKDYDVEYDPLAAAIAAAGGGGDGDIAFVQSKSFISTQGWDSDMVVDYRINEDEFHKLSLMDCDFFIRKPPDPDNDVYDFREMYVTPPDTDIYSIPRVLAPMPQKYIRCAMSDYGCYNVTEPPIDAPRDPLYKSEREISKVFLTKHYRNRRTNDPEFVLDLEEIYVIDSKTKSITRARVLVTVPGGRKRDRKDDLLVIRDNGTSFKIIHVGERDDPTTVIEREEWTKTREDMEKHLRKLRDFSVSNWF
B8: mTERF6/PDE191 (protein, UniProt Q9SZL6 1-333)
chain: MEVTNTSSIMWFFRDKGFDDPSIDKMLRKCKQLEKAQSDVASENWDYLSNIVGIQERKLPYIVSRCPKILTLRLDERLIPMVECLSSLGRNPREVASAITKFPPILSHSVEEKLCPLLAFFQALGVPETQLGKMILFNPRLISYSIDTKLTVIVSFLASLGLDQDGMIGKVLVKNPFLMGYSVDKRLRPTTEFLKSSVGLSEDGIKSVVMNFPQLLCRDVNKILKPNYDYLKECGFGDSQIATMVTGYPQILIKSVKNSLQPRIRFLVQVMGRGMDEVASYPEFFHHGLKKKVESRFKLVKKNNIDCSLREMLDCNTKKFHEKFGFSEVTASF
B9: rpoB (protein, UniProt P50546 1-1072)
chain: MLGDEKEGTSAIPGFNQIQFEGFYRFIDQGLIEELAKFPKIEDIDHEIEFQLFVETYQLVEPLIKERDAVYESLTYSSELYVSAGLIWKTSRNMQEQRIFIGNIPLMNSLGTSIVNGIYRIVINQILQSPGIYYQSELDHNGISVYTGTIISDWGGRLELEIDKKARIWARVSRKQKISILVLSSAMGLNLREILENVCYPEIFLSFLTDKEKKKIGSKENAILEFYQQFSCVGGDPIFSESLCKELQKKFFHQRCELGRIGRRNINWRLNLNIPQNNIFLLPRDVLAAADHLIGMKFGMGTLDDMNHLKNKRIRSVADLLQDQLGLALARLENVVKGTISGAIRHKLIPTPQNLVTSTPLTTTYESFFGLHPLSQVLDRTNPLTQIVHGRKLSYLGPGGLTGRTANFRIRDIHPSHYGRICPIDTSEGINVGLIGSLSIHARIGDWGSLESPFYELFEKSKKARIRMLFLSPSQDEYYMIAAGNSLALNRGIQEEQAVPARYRQEFLTIAWEEVHLRSIFPFQYFSIGASLIPFIEHNDANRALMSSNMQRQAVPLSRSEKCIVGTGLERQVALDSGVPAIAEHEGKILYTDTEKIVFSGNGDTLSIPLIMYQRSNKNTCMHQKPQVRRGKCIKKGQILADGAATVGGELALGKNILVAYMPWEGYNFEDAVLISECLVYGDIYTSFHIRKYEIQTHVTTQGPERITKEIPHLEGRLLRNLDKNGIVMLGSWVETGDILVGKLTPQVAKESSYAPEDRLLRAILGIQVSTSKETCLKLPIGGRGRVIDVRWVQKKGGSSYNPEIIRVYISQKREIKVGDKVAGRHGNKGIISKILPRQDMPYLQDGRPVDMVFNPLGVPSRMNVGQIFECSLGLAGSLLDRHYRIAPFDERYEQEASRKLVFSELYEASKQTANPWVFEPEYPGKSRIFDGRTGDPFEQPVIIGKPYILKLIHQVDDKIHGRSSGHYALVTQQPLRGRSKQGGQRVGEMEVWALEGFGVAHILQEMLTYKSDHIRARQEVLGTTIIGGTIPKPEDAPESFRLLVRELRSLALELNHFLVSEKNFQINRKEV
B10: PAP11/MurE-Like (protein, UniProt F4I3P9 1-772)
chain: MAFTFLSPHPVFLSLTGTTSSFSYKPVLLPFSRNSRTLTVAAGPARRNSYPNPADDDPPEAPEDSMHGVSKFQQIQRQAARARKLEEEDFEKNRNTYLSAIADVEDAAETGRDDEESGGDLFSDIDRAISMKRSEFVKQGLLKPNPPKTASLKKIGEEGNEEEGDVTDDVDELDEEEVVDLDEIDKLTGLTEISDEEDWVDEEGNTRINKKKEFGSDHQFEFDLDDFGESKARIVEPKFKMCLAELLDESKVVPISVYGDLDVEITGIQHDSRGVSAGDLFVCCLGSENFLSEADKRGAVAVVASKEIDIEDTLGCRALVIVEDTNAVLAALASSFYRHPSKNMSVIGVTGTDGKTTTTYLIKSLYEAMGVRTGMFSTVSCYIHGDNKLDTPNATMNPDAVLVQSLMAKMLHNGTESLVMEASPQELALGKCDEVDFDIAVFTNLTRENTDFRGTDEEYRDAEAKLFSRMVDPERHRKVVNIDDPNAAFFVQQGNPNVPVVTFAMENTKADVHPLKFELSLFETQVLVNTPQGILEISSGLLGRHNIYNILAAVAVGIAVGAPLEDIVRGVEEVDAVPGRCELIDEEQAFGVIVDHANTPDGLSRLLDSIRELKPRRIITVIGCEGENERGKRPLMTKIATEKSDVTMLTSDNPRNEDPLDILDDMLSGIGWTMQEYLKHGEHDYYPPLANGHRLFLHDIRRVAVRCAVAMGEEGDMVVVAGKGHEAYQLEGEKKEFYDDREECREALQYVDELHQAGIDTSEFPWRLPESH
B11: mTERF2/EMB221 (protein, UniProt F4IHL3 1-641)
chain: MLLHCNVSYYTSTFSFISSSLRRQDNADDSQDTVIRRRHNARSISLYIRHNRDLKLNKNPNESQETFVPPPPPPRRDLDGENRSKLLELSLVTRRTPQFPGSIYAQSASDADIASSLPSLRNFLGSDGDDDGESEREMIVKALEIRRKVTKEIIKESLVRKGRFGITYATNVTDRLGDFVDHVMIQAAALKRLPEFSESRFNLRARTVIEDSNFVPLVRWLKHHELSYNRIAKIICMSKGNLDSIRIMIEWLKSIHVKGEFIAVAFLRSGDNILQRNREELNEIVEYLESNGVRRDWMGYVVGRCPELLSFSMEEVKSRVDFFLKMGMNQNDFGTMVYDYPKIIGFFSFQVMEKKINYLKEFGLSTEEVGRLLAYKPHLMGCSIEERWKPLVKYFYYLGIPKEGMKRILVVKPILYCIDLEKTIAPKVRFLQEMGIPNEAIGNMLVKFPSLLTNSLYKKIRPVVIFLLTRAGVTQKDIGKVIAMDPALLGCSIGTKLEPNMRYYISLGIRFYQLGEMIADFPMLLRYNVDNLRPKYRYLRRTMIRPLQDLIEFPRFFSYSLERRIIPRHTIMVENRVNFKLRYMLACTDEEFERRVRDKVERRERFEAGLDSEDSQPSDENISDQEIAFSDEAEEEEDLTE
B12: PAP9/FSD3 (protein, UniProt Q9FMX0 1-263)
chain: MSSCVVTTSCFYTISDSSIRLKSPKLLNLSNQQRRRSLRSRGGLKVEAYYGLKTPPYPLDALEPYMSRRTLEVHWGKHHRGYVDNLNKQLGKDDRLYGYTMEELIKATYNNGNPLPEFNNAAQVYNHDFFWESMQPGGGDTPQKGVLEQIDKDFGSFTNFREKFTNAALTQFGSGWVWLVLKREERRLEVVKTSNAINPLVWDDIPIICVDVWEHSYYLDYKNDRAKYINTFLNHLVSWNAAMSRMARAEAFVNLGEPNIPIA

The binders below were run against Seedling Lethal 1 (SL1/mTERF3) (Arabidopsis thaliana) (assay: two-hybrid; SL1 as bait (GAL4 DNA binding domain, pGBKT7), PEP complex proteins and chloroplast mTERF proteins as prey (GAL4 activation domain, pGADT7); yeast strain Y2H Gold; growth on SD/-Trp-Leu, SD/-Trp-Leu-His and SD/-Trp-Leu-His-Ade).

**Q.** Which binding does the source give for B1 here?
**A.** no binding

**Q.** How did the binding turn out when B2 was run?
**A.** no binding

**Q.** How did the binding turn out when B3 was run?
**A.** no binding

**Q.** B4 was tested. Which binding did it give?
**A.** no binding

**Q.** B5 was tested. Which binding did it give?
**A.** no binding

**Q.** For B6, which binding is on record?
**A.** no binding

**Q.** For B7, which binding is on record?
**A.** no binding

**Q.** With B8 as the binder, how does the binding read?
**A.** no binding

**Q.** For B9, which binding is on record?
**A.** no binding

**Q.** B10 was tested. Which binding did it give?
**A.** no binding

**Q.** With B11 as the binder, how does the binding read?
**A.** no binding

**Q.** Which binding does the source give for B12 here?
**A.** no binding

From article PMC7772139
